Measurements as given in publication PMC11345397.
Positions count from the first letter of the chain named. Results are given in words; binding and its absence hold for the method and conditions named. In cells and extracts the contact can be indirect. Some entries that bind do so weakly or less than the wild type. Where a sequence is shown, tags or fusion partners need not be part of it.

Chains of the proteins cited; added tags and fusions are not shown.
UniProt P09874: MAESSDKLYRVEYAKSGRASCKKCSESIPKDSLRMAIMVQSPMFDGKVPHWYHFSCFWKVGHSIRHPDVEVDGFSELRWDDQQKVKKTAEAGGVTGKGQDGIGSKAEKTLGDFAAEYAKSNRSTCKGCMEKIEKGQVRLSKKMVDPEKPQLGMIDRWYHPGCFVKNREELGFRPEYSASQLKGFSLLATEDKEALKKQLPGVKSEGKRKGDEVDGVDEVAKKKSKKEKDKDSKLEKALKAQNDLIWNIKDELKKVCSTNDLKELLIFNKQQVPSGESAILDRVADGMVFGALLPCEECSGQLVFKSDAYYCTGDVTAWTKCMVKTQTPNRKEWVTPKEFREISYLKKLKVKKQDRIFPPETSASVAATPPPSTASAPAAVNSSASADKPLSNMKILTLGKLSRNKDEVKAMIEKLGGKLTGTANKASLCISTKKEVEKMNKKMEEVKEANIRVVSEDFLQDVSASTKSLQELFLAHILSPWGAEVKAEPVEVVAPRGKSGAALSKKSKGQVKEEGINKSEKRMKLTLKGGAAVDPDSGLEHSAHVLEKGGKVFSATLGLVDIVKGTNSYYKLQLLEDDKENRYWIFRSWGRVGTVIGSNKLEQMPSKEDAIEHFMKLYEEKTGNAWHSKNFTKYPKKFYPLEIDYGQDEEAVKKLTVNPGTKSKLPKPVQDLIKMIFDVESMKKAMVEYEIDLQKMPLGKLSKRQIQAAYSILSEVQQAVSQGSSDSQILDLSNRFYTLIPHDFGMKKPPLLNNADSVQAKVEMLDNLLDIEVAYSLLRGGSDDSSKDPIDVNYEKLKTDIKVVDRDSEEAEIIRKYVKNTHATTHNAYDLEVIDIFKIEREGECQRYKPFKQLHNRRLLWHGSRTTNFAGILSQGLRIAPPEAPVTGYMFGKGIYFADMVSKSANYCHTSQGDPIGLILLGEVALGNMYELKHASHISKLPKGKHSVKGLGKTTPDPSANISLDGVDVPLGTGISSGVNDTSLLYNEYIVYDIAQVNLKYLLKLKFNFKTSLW
UniProt P15927: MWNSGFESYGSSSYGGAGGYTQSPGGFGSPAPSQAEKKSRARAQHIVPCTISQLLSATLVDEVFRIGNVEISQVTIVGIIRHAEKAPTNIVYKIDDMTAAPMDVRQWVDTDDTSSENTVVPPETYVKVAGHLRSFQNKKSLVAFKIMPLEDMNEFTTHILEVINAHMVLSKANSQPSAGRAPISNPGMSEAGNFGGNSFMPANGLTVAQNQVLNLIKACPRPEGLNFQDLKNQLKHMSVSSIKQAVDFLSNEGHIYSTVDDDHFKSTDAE

Experiments:
[1] = target: T1, SFB-tagged DTX2B (wild type) (human) (UniProt Q86UW9); assay: condition: only cells pretreated with 10 μM olaparib (PARPi); pull-down; as a1, but cells pretreated with 10 μM olaparib (PARPi) for 18 h before 2 mM H2O2 for 10 min
T1 sequence: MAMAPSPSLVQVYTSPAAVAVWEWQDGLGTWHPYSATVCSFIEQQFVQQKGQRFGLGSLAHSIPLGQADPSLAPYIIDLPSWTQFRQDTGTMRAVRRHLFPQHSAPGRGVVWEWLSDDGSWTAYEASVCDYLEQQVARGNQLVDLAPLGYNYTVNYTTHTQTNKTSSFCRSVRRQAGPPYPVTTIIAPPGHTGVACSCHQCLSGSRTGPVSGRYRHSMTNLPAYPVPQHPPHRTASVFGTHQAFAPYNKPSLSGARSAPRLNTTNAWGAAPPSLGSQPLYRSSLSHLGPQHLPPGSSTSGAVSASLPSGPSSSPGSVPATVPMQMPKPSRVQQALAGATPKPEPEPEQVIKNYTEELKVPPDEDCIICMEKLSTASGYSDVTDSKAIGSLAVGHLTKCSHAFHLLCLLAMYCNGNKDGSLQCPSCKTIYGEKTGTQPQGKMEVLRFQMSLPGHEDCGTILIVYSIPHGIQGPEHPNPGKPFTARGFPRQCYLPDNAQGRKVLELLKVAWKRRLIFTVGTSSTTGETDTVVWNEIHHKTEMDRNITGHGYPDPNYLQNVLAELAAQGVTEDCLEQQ

[2] = target: T2, SFB-tagged DTX2B DTC∗ (S521A/H535A/H547A) (human) (UniProt Q86UW9); assay: pull-down; streptavidin pull-down (MagReSyn Streptavidin beads, 1 h, 4 °C) of SFB-tagged bait from lysates of transfected HEK293T cells treated with DMSO and then 2 mM H2O2 for 10 min; lysis in 50 mM Tris-HCl pH 7.5, 150 mM NaCl, 1% NP-40 with PARG inhibitor and olaparib; immunoblotting
T2 sequence: T1 sequence with S521A, H535A, H547A

[3] = target: T1, SFB-tagged DTX2B (wild type) (human); assay: as above

binding [1]	binding [2]	binding [3]	Substance
no binding	binds	binds	PARP1 (from UniProt P09874 1-1014)
–	–	no binding	RPA32 (replication protein A 32 kDa subunit) (from UniProt P15927 1-270)
